Among all 340,000 compounds or so, about 170 (0.05%) were called active. The shares of active, inactive and inconclusive entries below differ from those in the screen. The call rests on the fitted dose curve; in most records, active means well fitted inhibition curve with a large enough effect in the signal ratio, with a control signal flat (not every such curve was filed as active); inconclusive means small, poorly fitted or top-dose-only effect, or effect the other way, or a change in a side signal; inactive means flat fitted curve, though single readings scatter; the % refers to the signal ratio. Potencies of inconclusive entries are doubtful fits and often do not repeat.
Assay: qHTS Assay to Find Inhibitors of Chronic Active B-Cell Receptor Signaling;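 on activity change, negative = inhibition: plate controls were basal doxycycline-induced cells for no effect and cells given 10 µM MG132 for full effect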
Settings: ABC-DLBCL IkBa-CBG/CBR reporter, luminescence ratio (green luciferase fused to IkBa over red control in TMD8 lymphoma cells), 4 h; activity change, negative = inhibition: at 46.1 µM (top of the series)
Summary of the method: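 Doxycycline induced both beetle luciferases in TMD8 lymphoma cells; IKK-driven degradation limits the IkappaBalpha-fused green signal, while red luminescence normalises for cell number and nonspecific effects. Compounds tested up to 46 uM, 4 hrs.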
For CCn1c(C)c(CS(=O)(=O)c2ccccc2)[nH]c1=O, the Potency was inconclusive: 31.6 µM [falling, single point].
With COc1ccccc1-n1c(CNC(=O)c2cccs2)n[nH]c1=S the Potency was inconclusive: 12.6 µM [falling, partial curve].
For COCCNCc1nc2sc(C)c(-c3ccccc3)c2c(=O)[nH]1, the activity change, negative = inhibition was inconclusive: -0.999%.
For COc1ccc(-c2cc(-c3c(O)c(OC)c4occc4c3OC)[nH]n2)cc1OC, the Potency was inconclusive: 35.5 µM [falling, partial curve, poor fit].
In the case of OCCCc1n[nH]c(=S)n1-c1ccccc1, the Potency is reported as inconclusive: 0.0891 µM [falling, full curve, poor fit].
In the case of O=C1NC(Cc2c[nH]c3ccccc23)C(=O)N1CCOc1ccccc1 (stereo not given), the activity change, negative = inhibition is reported as inconclusive: 6.4%.
With COc1cc(OC)cc(-c2cc(N)n(S(=O)(=O)c3cccc4nsnc34)n2)c1 the Potency was inconclusive: 10 µM [falling, partial curve].
For COc1ccc(S(=O)(=O)Nc2cc3c(C(C)=O)c(C)oc3c3ccccc23)cc1, the Potency was inconclusive: 1.03 µM [falling, partial curve, poor fit].
With O=C(NCc1ccco1)C1CC(=O)N(c2ccc(Cl)cc2)C1 (stereo not given) the activity change, negative = inhibition was inconclusive: 0.432%.
With CC(C)=CCc1c(O)c(CC=C(C)C)c2occ(-c3ccc(O)cc3)c(=O)c2c1O the Potency was inconclusive: 35.5 µM [falling, partial curve, poor fit].
In the case of COc1ccc(NC(=O)C2C3CCC(C3)C2C(=O)O)cc1OC (stereo not given), the activity change, negative = inhibition is reported as inconclusive: 5%.
For O=C(Cc1ccc(Br)cc1)NCc1ccccc1, the activity change, negative = inhibition was inconclusive: -20.4%.
With COc1cccc(/C=N/NC(=O)CSc2cccc3cccnc23)c1 the Potency was inconclusive: 35.5 µM [cytotoxic, single point].
In the case of Cc1cccc(CN2CCN(C(=O)CCl)CC2)c1, the activity change, negative = inhibition is reported as inconclusive: 12.2%.
With Cc1ncsc1CCOC(=O)c1ccc(N2CCOCC2)c([N+](=O)[O-])c1 the activity change, negative = inhibition was inconclusive: -2.54%.
For COc1ccc(CCNC(=O)c2c(O)c3ccccc3[nH]c2=O)cc1OC, the activity change, negative = inhibition was inconclusive: -11.1%.
With CSc1ncccc1C(=O)Nc1ccc(S(=O)(=O)NC2=NCCCCC2)cc1 the “activity change, negative = inhibition” value was inactive: -3.2%.
With O=C(C1CCC(CNc2c(N3CCCCC3)c(=O)c2=O)CC1)N1CCN(C2CCCCC2)CC1 (stereo not given) the activity change, negative = inhibition was inconclusive: -9.6%.
For Cc1cccc(-c2cc3nc(C)cc(NCCCn4ccnc4)n3n2)c1, the Potency was inconclusive: 11.6 µM [falling, partial curve, poor fit].
With COC(=O)c1cn(C(=O)c2cccc(Br)c2)c2ccccc12 the activity change, negative = inhibition was inconclusive: 4.02%.

Source: PubChem BioAssay AID493014 (National Center for Advancing Translational Sciences (NCATS), 2011)
Potency means the concentration at half of the fitted maximal effect.
